# Like-named read-outs stand apart in the source and are kept apart here. At least one compound was matched to its structure with a doubt left.
# What was measured:
# PAM1032 [1] = assay: Activity of levofloxacin against PAM1032 in CF sputum; type: cell-based, P. aeruginosa; conditions: short duration of treatment, high concentrations
# PAM1582 = type: cell-based, Pseudomonas aeruginosa
# Protocol: (§1) The in vitro pharmacodynamic model consists of a central (analogous “serum” compartment) and peripheral (“extravascular”) compartment. The peripheral compartments consist of artificial capillary units (Unisyn, Hopkinton, Mass.) arranged in series with the central compartment. Each capillary unit has a bundle of small semi-permeable fibers with a molecular size retention of ca. 10,000 MW to allow passage of nutrients but not bacteria. The entire system is set up in a dry heat incubator adjusted to 37° C.
# (§2) Both the central and peripheral compartments were filled with Mueller-Hinton broth. Each peripheral compartment (capillary unit and tubing) contained ca. 23 ml of growth medium.
# (§3) Bacteria were introduced into the peripheral chamber of the model and allowed to grow for 2 hours prior to the first “dose” of drug. Drug doses were administered into the central compartment and pumped to peripheral chambers by a peristaltic pump. Concentrations in the model declined according to first order elimination (half-life) by dilution of the central compartment with drug free medium introduced by an additional peristaltic pump adjusted to the desired clearance.
# (§4) Samples (0.3 ml) were collected from peripheral compartments at various intervals for determination of drug and bacterial concentrations. Samples were collected from the peripheral compartments and assayed for drug concentrations by HPLC. […]
# PAM1032 [2] = assay: In vitro pharmacodynamic (hollow fiber) model of infection; type: cell-based, Pseudomonas aeruginosa; conditions: Cmax 1000 ug/ml, remaining 2 hours
# Protocol: as §1, §2, §3, §4
# PAM1020 = assay: Time-kill and re-growth, stationary phase cells (Experiment 2); type: cell-based, P. aeruginosa; conditions: 10 minutes vs 160 minutes at high concentrations
smiles,measurement,setting,value
"C[C@H]1COc2c(N3CCN(C)CC3)c(F)cc3c(=O)c(C(=O)O)cn1c23 [Levofloxacin, levofloxacin]",killing in sputum,PAM1032 [1],up to five orders of magnitude
same,re-growth,"PAM1582; Cmax 600 ug/ml, 2 hour window",initial re-growth
same,re-growth,"PAM1582; Cmax 1000 ug/ml, remaining 2 hours",no re-growth observed
same,re-growth,PAM1032 [2],no re-growth observed
same,re-growth after treatment,PAM1020,re-growth of both strains was observed at approximately the same time

# Source: US10987357B2, “Aerosolized fluoroquinolones and uses thereof” (Horizon Orphan, LLC, priority 2005, dated 2021)
